Assay results taken from PubChem BioAssay AID2685 (National Center for Advancing Translational Sciences (NCATS), 2010).
Some of the results follow. Further columns of the screen follow, without active or inactive calls. Most of these compounds were active or inconclusive in the main read-out, so they are no random draw. Words in brackets tell the shape of the fitted curve; partial curves, single points and poor fits give uncertain potencies.

Test: qHTS Assay for Lipid Storage Modulators in Drosophila S3 Cells;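 on cell number change: cells counted by Cell Tracker Red CMTPX staining in the red channel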
Conditions: BODIPY lipid droplet fluorescence, 18-24 h; for cell number change: measured here: cell count max response, cells fed with added oleic acid
In short: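 Drosophila S3 cells got compounds at several concentrations plus oleic acid (400 uM solution). Laser-scanning cytometry with 488 nm excitation read lipid droplets at 500-530 nm and cells at 575-640 nm. Percent activity was relative to 20 uM Triacsin C.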

[1] = measured here: cell number channel AC50, cells fed with added oleic acid
[2] = measured here: lipid fluorescence (Fed channel) AC50, cells fed with added oleic acid

Row | Compound | cell number change | AC50 [1] | AC50 [2]
1 | N#CC1=C(N)Oc2ccc3ccccc3c2C1c1cccnc1 (configuration not stated) | 10.8% |  | 
2 | CCOC(=O)c1c(CSc2ccc(C)cc2)oc2ccc(O)cc12 | -47% | 23.1 µM [falling, single point] | 29.1 µM [falling, single point]
3 | CCCCc1ccc(CC(=O)Nc2cc(S(=O)(=O)N3CCOCC3)ccc2O)cc1 |  |  | 25.9 µM [falling, partial curve]
4 | CCOC(=O)C1CCCN(c2c(NCc3ccco3)c(=O)c2=O)C1 (configuration not stated) | -10.2% |  | 
5 | CC(C)c1ccccc1OCC(O)CN(CC(O)COc1cccc2ccccc12)C(C)C (configuration not stated) | 53.2% | 29.1 µM [rising, single point] | 6.51 µM [falling, partial curve]
6 | CCOc1ccc(C(C)NC(=O)c2cccc(F)c2)cc1 (configuration not stated) | -50% | 3.66 µM [falling, partial curve] | 
7 | Cc1ccc(C2(CC(=O)Nc3nccs3)CCOC(C(C)C)C2)cc1 (configuration not stated) | 8.9% |  | 
8 | OCCNCc1cc(Br)ccc1OCc1ccccc1Cl | -3.48% |  | 14.6 µM [falling, single point]
9 | CC(C)N(C1=CC(=O)OC12CCCCC2)C(C)C | 15.2% |  | 4.61 µM [rising, single point]
10 | CC1Cc2ccccc2N1C(=O)CSc1nnc(-c2ccc(S(=O)(=O)N3CCCC3)cc2)n1C (configuration not stated) | -15.7% |  | 0.58 µM [falling, full curve, poor fit]
11 | COCCOC(=O)C1=C(C)NC(=O)NC1C1CC=CCC1 (configuration not stated) | -52.3% | 29.1 µM [falling, single point] | 5.17 µM [falling, full curve]
12 | COC(=O)C(NS(=O)(=O)c1ccc(N2CCCC2=O)cc1)c1ccccc1 (configuration not stated) | -0.88% |  | 0.00517 µM [falling, full curve, poor fit]
13 | CC(C)n1c(CCCO)nc2ccccc21 | -0.52% |  | 0.92 µM [rising, full curve]
14 | CCOc1ccc(CC(=O)NC2CCN(Cc3ccccc3)CC2)cc1 | 22.6% |  | 
15 | O=C(C1CCCCN1S(=O)(=O)c1ccccc1[N+](=O)[O-])N1CCCCC1 (configuration not stated) |  |  | 0.13 µM [falling, full curve, poor fit]
16 | COc1ccc(OCc2cc(C(=O)NCc3nc(C)cs3)no2)c(Cl)c1 | 42.2% | 1.3 µM [rising, full curve, poor fit] | 4.61 µM [rising, full curve]
17 | COc1ccc(CNC(=O)c2c(O)c3cccc4c3n(c2=O)CCC4)cc1OC |  |  | 0.58 µM [rising, single point]
18 | CC1=C(C(=O)OCc2ccccc2)C(c2ccccc2)NC(=O)N1CCCC(=O)O (configuration not stated) | 10.8% |  | 
19 | CC(NC(=O)C1CCC(CNc2c(N3CCOCC3)c(=O)c2=O)CC1)c1ccccc1 (configuration not stated) | -9.09% |  | 2.06 µM [falling, partial curve]
20 | O=C(NCc1ccco1)C(=S)N1CCCCC1 | 33.3% |  | 

Row | Compound | cell number change | AC50 [1] | AC50 [2]
21 | O=C(CSc1nnc(-c2ccco2)c(-c2ccco2)n1)Nc1ccccc1 | 3.83% | 6.51 µM [falling, single point] | 0.517 µM [falling, partial curve, poor fit]
22 | CCCNS(=O)(=O)c1ccc(OCC(=O)N2CCc3ccccc3C2)c(C)c1 | -7.14% |  | 29.1 µM [falling, single point]
23 | COc1cc(OC)cc(C(=O)N2CCN(S(=O)(=O)c3ccc(Cl)s3)CC2)c1 | 14.2% |  | 
24 | O=c1[nH]c(=O)n(Cc2ccccc2)c2nc(-c3ccco3)cc(C(F)(F)F)c12 | -10.7% |  | 6.51 µM [rising, single point]
25 | CC1(C)[C@@H](O)CC[C@]2(C)C3C(O)C=C4[C@H]5C[C@@](C)(C(=O)O)CC[C@]5(C)CC[C@]4(C)[C@]3(C)CC[C@@H]12 (some centres not stated) | -62.6% | 25.9 µM [falling, partial curve] | 18.4 µM [falling, partial curve, poor fit]
26 | CCN(CC)S(=O)(=O)c1cc(NC(=O)CSc2nccn2C)ccc1C | 21.3% | 0.0291 µM [rising, full curve, poor fit] | 0.0146 µM [rising, full curve]
27 | COc1ccc(NC(=O)CN2C(=O)NC3(CCCCC3C)C2=O)cc1OC (configuration not stated) | -0.429% |  | 29.1 µM [rising, single point]
28 | Oc1c(Br)cc(Br)cc1CNn1cnnc1 | 13.5% |  | 20.6 µM [falling, single point]
29 | Cc1ccc(Oc2nn[nH]n2)cc1 | 10.2% |  | 16.4 µM [rising, partial curve, poor fit]
30 | Cn1c2ccsc2c2ncn(Cc3ccc(F)cc3)c(=O)c21 | 5.75% |  | 20.6 µM [rising, single point]
31 | Cc1ccc(Sc2c(C#N)c(-c3ccccc3)nn2C)cc1 | -19.4% |  | 
32 | O=S(=O)(Nc1cc(C(F)(F)F)ccc1N1CCOCC1)c1ccc2ccccc2c1 | 19.7% |  | 9.2 µM [rising, partial curve]
33 | CN(Cc1cccs1)C(=O)COC(=O)CNC(N)=O | -36.4% | 29.1 µM [falling, single point] | 1.03 µM [rising, full curve, poor fit]
34 | CCCCCCSc1ccc([C@H]2N[C@@](Cc3ccccc3)(C(=O)OC)[C@H]3C(=O)N(CC)C(=O)[C@@H]23)cc1 | -32.8% | 23.1 µM [falling, single point] | 0.517 µM [falling, full curve]
35 | CC(Oc1ccccc1)C(=O)N1CCN(c2ccc(N3CCCCC3)nn2)CC1 (configuration not stated) | 13.2% |  | 0.82 µM [falling, partial curve, poor fit]
36 | COc1ccc(/C(N)=N/OC(=O)C2CCCCC2)cc1OC |  |  | 1.84 µM [falling, partial curve]
37 | O=C(COC(=O)c1nc(Cl)ccc1Cl)NNC(=O)c1cccs1 | -17% | 1.16 µM [falling, full curve, poor fit] | 
38 | Cc1cc(C)cc(N(CC(=O)Nc2ccccc2)C2=NC3CS(=O)(=O)CC3S2)c1 (configuration not stated) | 34.5% | 5.8 µM [rising, partial curve, poor fit] | 
39 | O=C(CSc1nnc2ncccn12)N1CCCCCC1 |  |  | 6.51 µM [falling, single point]
40 | Cc1ccc(C(=O)NCC(c2ccco2)N2CCc3ccccc3C2)cc1 (configuration not stated) | 23.2% |  | 18.4 µM [rising, single point]

Pulled one by one from above:
Row | Compound | cell number change | AC50 [1] | AC50 [2]
32 | O=S(=O)(Nc1cc(C(F)(F)F)ccc1N1CCOCC1)c1ccc2ccccc2c1 | 19.7% |  | 9.2 µM [rising, partial curve]
13 | CC(C)n1c(CCCO)nc2ccccc21 | -0.52% |  | 0.92 µM [rising, full curve]
35 | CC(Oc1ccccc1)C(=O)N1CCN(c2ccc(N3CCCCC3)nn2)CC1 (configuration not stated) | 13.2% |  | 0.82 µM [falling, partial curve, poor fit]

(more compounds)

Row | Compound | cell number change | AC50 [1] | AC50 [2]
41 | Cn1c(=O)c2c(nc(Cl)n2Cc2ccncc2)n(C)c1=O | -16.4% |  | 
42 | Oc1cccc2ccc(/C=C/c3ccc(Br)s3)nc12 | 37.9% | 16.4 µM [rising, single point] | 0.411 µM [falling, partial curve, poor fit]
43 | C=CCN1CC(=O)N2C(c3ccccc3)c3[nH]c4ccccc4c3C[C@H]2C1=O (some centres not stated) | 8.51% |  | 29.1 µM [rising, single point]
44 | Cc1cccc(C)c1N(CC(=O)NCc1ccc(F)cc1)C(=O)c1csnn1 | -18.8% | 0.00517 µM [falling, full curve, poor fit] | 
45 | Cc1ccc(-c2cn(-c3ccc(OC(F)F)cc3)c3[n+]2CCCCC3)cc1 | -28.8% |  | 20.6 µM [falling, single point]
46 | CCOC(=O)C1CCN(C(=O)COC(=O)c2cc(-c3cccs3)nn2-c2ccccc2)CC1 | 47.3% | 4.11 µM [rising, partial curve, poor fit] | 6.51 µM [rising, single point]
47 | C=CCOc1ccc(/C=C2/C(=O)ON=C2C)cc1OC | -18.2% |  | 29.1 µM [falling, single point]
48 | COc1ccc(N2CCN(C(=O)COc3ccc4c(C)cc(=O)oc4c3)CC2)cc1 | -21.1% | 2.59 µM [rising, partial curve] | 2.91 µM [rising, partial curve]
49 | Cc1csc2nc(CSc3nc4ccccc4o3)cn12 | -8.28% |  | 0.326 µM [rising, full curve, poor fit]
50 | CCOC(=O)N1CCN(C(=O)COC(=O)c2cccc(S(C)(=O)=O)c2)CC1 | -10% |  | 
51 | Cc1ccc(S(=O)(=O)N2CCOCC2)cc1C(=O)Nc1ccc(-c2cn3ccsc3n2)cc1 | 24.4% | 0.58 µM [rising, full curve] | 0.259 µM [rising, full curve, poor fit]
52 | O=C(CCN1CCCC1Cc1ccccc1)c1ccc2c(c1)OCCO2 (configuration not stated) | -44.9% | 16.4 µM [falling, partial curve] | 18.4 µM [falling, partial curve]
53 | Cc1cc(O)c(NC(=O)c2ccco2)cc1C | -29.7% |  | 2.91 µM [rising, partial curve]
54 | CC(NC(=O)CCN1C(=O)c2ccccc2S1(=O)=O)c1ccccc1 (configuration not stated) | 13.3% |  | 
55 | CN(C)c1ccc(/C=C(\C#N)c2ccccn2)cc1 |  |  | 14.6 µM [falling, partial curve, poor fit]
56 | CCC1CCCCN1C(=O)Cn1c(C(=O)OC)cc2ccsc21 (configuration not stated) | -29.6% |  | 16.4 µM [falling, single point]
57 | O=C(NCc1ccco1)/C(=C\c1ccc(F)cc1)NC(=O)c1ccco1 | 1.26% |  | 5.17 µM [rising, partial curve]
58 | CC(=O)NCc1cccc(CNC(C)=O)n1 | -7.93% |  | 25.9 µM [falling, partial curve]
59 | Cc1ccccc1-c1nc(CS(=O)(=O)CC(=O)N2CCc3ccccc3C2)c(C)o1 | 10.4% | 2.59 µM [rising, single point] | 
60 | COC(=O)c1[nH]c2ccccc2c1NC(=O)Oc1ccccc1 | -16.6% |  | 1.16 µM [falling, full curve, poor fit]
